Positions count from the first letter of the chain named. Results are given in words; binding and its absence hold for the method and conditions named. Some entries that bind do so weakly or less than the wild type.
B1: VLX8hum_06 IgG2 (antibody, V domains shown)
VH: QVQLVQSGAEVKKPGASVKVSCKASGYSFTNYYIHWVRQAPGQGLEWMGYIDPLNGDTTYNQKFKGRVTMTRDTSTSTVYMELSSLRSEDTAVYYCARGGKRAMDYWGQGTLVTVSS
VL: DIQMTQSPSSLSASVGDRVTITCRASQSISNYLNWYQQKPGKAPKLLIYYTSRLYSGVPSRFSGSGSGTDFTLTISSLQPEDFATYYCQQGNTLPWTFGQGTKVEIKR
B2: VLX8hum_07 IgG2 (antibody, V domains shown)
VH: B1 VH with A16S, M70I, R72A, T74E, V79A
VL: B1 VL
B3: VLX8hum_08 IgG2 (antibody, V domains shown)
VH: EVQLVQSGAEVKKPGESLKISCKGSGYSFTNYYIHWVRQMPGKGLEWMGYIDPLNGDTTYNQKFKGQVTISADKSISTAYLQWSSLKASDTAMYYCARGGKRAMDYWGQGTLVTVSS
VL: B1 VL
B4: VLX8hum_09 IgG2 (antibody, V domains shown)
VH: B1 VH with A16S, N61A, K65Q, M70I, R72A, T74E, V79A
VL: B1 VL

Protein sequences, listed by entry. Tags and fused reporters are not part of them. Lines headed by an entry give the natural chain unless they say otherwise; changes in a name come on top.
UniProt Q08722: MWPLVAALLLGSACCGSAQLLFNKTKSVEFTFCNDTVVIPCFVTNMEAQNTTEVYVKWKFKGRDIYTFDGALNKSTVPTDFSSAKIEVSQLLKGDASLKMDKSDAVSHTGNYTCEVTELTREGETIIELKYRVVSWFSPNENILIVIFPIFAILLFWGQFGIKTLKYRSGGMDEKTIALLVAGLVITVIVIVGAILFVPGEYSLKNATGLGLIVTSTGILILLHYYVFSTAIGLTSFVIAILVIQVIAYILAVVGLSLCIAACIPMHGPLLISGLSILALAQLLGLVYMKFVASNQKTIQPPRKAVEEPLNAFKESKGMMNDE

Target: human CD47 expressed on cells (human) (UniProt Q08722)
Assay: flow cytometry, human RBCs

binding, binds:
B1
B2
B3
B4

Target: human CD47 expressed on cells (human) (UniProt Q08722)
Assay: cell-based ELISA on OV10 cells expressing human CD47 (OV10 hCD47), HRP-labelled secondary antibody, OD 450

binding, binds:
B1
B2
B3
B4

Target: human CD47 expressed on cells (human) (UniProt Q08722)
Assay: flow cytometry on freshly isolated human RBCs, FITC-labelled donkey anti-human antibody, MFI

binding, binds:
B1
B2
B3
B4

Target: human CD47 expressed on cells (human) (UniProt Q08722)
Assay: cell ELISA, OV10 hCD47 cells

binding, binds:
B1
B2
B3
B4

From patent US20190309066A1, “COMBINATION THERAPY FOR THE TREATMENT OF SOLID AND HEMATOLOGICAL CANCERS” (Arch Oncology, Inc., priority 2017, published 2019)
